Experimental data from the supplement of paper PMC10849652.
The list shows a part of the results.

By UniProt entry, the sequences of proteins in these tests, tags left out. Where a name states a change or a piece, a line headed by the entry shows the natural chain unless it says otherwise.
UniProt O75907: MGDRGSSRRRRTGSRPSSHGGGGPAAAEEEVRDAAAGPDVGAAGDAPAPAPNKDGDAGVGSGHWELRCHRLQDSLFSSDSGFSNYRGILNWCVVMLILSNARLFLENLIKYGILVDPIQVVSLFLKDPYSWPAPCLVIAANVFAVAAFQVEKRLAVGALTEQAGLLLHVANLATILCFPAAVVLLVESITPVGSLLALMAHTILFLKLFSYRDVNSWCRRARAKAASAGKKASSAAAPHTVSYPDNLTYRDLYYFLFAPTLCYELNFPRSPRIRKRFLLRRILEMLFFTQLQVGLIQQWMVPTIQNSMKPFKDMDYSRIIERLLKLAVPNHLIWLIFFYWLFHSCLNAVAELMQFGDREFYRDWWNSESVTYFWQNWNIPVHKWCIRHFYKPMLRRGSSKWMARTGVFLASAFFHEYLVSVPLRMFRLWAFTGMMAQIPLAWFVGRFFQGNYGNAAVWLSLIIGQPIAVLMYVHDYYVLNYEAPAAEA
UniProt P11532, whole entry, looked up: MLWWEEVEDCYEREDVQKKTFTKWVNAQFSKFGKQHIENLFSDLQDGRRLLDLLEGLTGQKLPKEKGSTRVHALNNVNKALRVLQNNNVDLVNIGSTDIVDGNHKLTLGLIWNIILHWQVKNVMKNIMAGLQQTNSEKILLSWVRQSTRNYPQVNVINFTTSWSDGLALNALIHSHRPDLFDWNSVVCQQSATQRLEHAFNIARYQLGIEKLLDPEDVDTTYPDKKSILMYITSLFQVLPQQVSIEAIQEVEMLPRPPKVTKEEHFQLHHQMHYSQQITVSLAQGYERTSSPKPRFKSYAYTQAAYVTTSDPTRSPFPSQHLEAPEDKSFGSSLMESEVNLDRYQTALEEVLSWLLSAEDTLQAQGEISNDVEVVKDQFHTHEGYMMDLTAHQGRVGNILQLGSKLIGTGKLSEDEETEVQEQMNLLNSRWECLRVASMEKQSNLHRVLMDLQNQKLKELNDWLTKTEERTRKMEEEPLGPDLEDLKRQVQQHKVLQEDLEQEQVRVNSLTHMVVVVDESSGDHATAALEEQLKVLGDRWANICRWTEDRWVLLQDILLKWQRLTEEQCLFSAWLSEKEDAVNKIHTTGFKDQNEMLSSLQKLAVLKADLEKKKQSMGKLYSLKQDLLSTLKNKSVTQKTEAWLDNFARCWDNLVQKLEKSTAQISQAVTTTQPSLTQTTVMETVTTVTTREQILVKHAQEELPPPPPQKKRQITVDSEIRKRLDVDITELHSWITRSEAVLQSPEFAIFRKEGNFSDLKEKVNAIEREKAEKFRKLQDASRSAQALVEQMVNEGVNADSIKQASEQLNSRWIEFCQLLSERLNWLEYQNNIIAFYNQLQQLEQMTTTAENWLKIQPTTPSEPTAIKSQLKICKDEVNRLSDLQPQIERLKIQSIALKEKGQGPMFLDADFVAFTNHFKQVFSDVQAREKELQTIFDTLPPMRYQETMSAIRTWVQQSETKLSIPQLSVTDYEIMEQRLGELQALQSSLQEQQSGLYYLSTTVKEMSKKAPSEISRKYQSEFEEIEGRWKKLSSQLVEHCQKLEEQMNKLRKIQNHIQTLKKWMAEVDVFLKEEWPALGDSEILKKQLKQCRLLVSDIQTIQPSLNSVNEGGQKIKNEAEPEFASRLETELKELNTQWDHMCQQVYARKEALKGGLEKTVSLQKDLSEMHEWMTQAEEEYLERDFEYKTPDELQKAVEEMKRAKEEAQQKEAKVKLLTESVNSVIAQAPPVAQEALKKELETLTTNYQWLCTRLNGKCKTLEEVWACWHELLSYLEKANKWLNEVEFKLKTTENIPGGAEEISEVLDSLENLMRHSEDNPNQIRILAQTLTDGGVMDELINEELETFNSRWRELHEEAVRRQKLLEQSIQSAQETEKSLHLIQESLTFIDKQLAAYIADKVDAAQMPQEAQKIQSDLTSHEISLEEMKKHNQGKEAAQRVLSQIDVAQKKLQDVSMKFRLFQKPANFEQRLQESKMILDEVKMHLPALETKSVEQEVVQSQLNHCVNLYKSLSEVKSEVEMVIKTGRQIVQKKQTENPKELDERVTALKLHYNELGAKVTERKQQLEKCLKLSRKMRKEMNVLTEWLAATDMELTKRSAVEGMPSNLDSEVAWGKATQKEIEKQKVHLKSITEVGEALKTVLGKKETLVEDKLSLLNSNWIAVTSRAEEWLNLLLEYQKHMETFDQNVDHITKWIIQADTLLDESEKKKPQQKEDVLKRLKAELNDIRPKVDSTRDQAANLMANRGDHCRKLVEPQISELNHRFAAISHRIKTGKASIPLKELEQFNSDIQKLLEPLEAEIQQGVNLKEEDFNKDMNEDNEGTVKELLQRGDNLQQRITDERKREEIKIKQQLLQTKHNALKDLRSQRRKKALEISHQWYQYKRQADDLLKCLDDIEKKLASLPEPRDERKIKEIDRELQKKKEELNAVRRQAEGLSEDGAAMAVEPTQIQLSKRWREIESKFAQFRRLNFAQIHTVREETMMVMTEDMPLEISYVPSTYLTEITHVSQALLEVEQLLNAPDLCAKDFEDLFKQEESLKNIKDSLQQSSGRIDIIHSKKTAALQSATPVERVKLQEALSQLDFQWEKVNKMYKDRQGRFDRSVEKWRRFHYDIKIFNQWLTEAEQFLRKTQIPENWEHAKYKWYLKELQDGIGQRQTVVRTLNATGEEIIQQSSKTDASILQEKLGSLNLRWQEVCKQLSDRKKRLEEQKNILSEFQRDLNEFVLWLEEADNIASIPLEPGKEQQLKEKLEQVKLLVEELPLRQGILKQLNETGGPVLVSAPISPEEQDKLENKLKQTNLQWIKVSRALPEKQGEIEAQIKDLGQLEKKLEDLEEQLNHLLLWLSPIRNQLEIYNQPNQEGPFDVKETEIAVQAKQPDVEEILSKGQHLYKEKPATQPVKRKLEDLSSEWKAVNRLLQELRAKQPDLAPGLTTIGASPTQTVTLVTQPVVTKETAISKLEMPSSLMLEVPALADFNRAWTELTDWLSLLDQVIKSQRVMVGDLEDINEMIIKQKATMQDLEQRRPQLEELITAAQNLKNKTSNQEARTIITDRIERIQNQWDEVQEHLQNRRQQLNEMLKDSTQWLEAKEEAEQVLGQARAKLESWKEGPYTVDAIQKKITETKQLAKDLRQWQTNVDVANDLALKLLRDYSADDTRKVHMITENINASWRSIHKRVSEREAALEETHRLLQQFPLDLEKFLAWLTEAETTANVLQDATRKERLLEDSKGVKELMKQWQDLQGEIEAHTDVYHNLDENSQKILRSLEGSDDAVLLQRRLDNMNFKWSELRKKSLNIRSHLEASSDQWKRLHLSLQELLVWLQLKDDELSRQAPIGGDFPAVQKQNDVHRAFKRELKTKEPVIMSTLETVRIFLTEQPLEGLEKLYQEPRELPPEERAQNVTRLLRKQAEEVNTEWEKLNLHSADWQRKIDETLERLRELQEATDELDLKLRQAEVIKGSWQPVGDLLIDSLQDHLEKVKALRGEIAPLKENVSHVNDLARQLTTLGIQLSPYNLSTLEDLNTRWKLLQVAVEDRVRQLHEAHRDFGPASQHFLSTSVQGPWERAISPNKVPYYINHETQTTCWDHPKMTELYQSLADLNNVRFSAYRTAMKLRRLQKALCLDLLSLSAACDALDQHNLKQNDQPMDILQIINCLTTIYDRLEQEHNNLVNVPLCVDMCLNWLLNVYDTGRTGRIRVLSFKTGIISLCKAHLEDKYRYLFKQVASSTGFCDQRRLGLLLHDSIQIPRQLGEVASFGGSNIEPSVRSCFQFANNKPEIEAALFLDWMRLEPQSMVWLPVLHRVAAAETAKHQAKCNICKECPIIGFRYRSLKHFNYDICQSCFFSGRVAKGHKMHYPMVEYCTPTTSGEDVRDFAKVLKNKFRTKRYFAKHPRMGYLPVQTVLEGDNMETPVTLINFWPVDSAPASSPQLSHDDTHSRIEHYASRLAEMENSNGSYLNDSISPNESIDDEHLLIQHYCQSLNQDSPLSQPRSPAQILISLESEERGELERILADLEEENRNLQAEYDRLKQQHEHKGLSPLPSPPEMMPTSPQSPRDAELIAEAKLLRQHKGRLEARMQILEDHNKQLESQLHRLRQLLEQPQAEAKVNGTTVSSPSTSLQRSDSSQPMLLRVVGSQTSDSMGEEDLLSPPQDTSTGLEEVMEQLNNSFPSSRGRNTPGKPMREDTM
UniProt P36957: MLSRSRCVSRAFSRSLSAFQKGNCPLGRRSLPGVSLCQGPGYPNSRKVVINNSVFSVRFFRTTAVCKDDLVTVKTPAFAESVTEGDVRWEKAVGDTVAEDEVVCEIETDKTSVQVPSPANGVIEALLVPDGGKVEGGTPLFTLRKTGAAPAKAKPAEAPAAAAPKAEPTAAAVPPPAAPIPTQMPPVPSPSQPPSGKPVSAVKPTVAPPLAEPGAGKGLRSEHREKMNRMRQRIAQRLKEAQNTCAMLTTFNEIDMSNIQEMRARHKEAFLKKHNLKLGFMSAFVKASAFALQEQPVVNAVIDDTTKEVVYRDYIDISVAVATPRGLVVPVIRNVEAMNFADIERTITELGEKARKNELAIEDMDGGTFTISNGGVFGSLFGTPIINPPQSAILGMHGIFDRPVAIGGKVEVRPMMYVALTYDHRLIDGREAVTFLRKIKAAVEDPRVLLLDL
UniProt P30046: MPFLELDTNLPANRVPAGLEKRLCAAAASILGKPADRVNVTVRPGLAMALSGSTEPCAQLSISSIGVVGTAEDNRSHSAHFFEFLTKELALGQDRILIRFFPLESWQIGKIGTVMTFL
UniProt Q14147: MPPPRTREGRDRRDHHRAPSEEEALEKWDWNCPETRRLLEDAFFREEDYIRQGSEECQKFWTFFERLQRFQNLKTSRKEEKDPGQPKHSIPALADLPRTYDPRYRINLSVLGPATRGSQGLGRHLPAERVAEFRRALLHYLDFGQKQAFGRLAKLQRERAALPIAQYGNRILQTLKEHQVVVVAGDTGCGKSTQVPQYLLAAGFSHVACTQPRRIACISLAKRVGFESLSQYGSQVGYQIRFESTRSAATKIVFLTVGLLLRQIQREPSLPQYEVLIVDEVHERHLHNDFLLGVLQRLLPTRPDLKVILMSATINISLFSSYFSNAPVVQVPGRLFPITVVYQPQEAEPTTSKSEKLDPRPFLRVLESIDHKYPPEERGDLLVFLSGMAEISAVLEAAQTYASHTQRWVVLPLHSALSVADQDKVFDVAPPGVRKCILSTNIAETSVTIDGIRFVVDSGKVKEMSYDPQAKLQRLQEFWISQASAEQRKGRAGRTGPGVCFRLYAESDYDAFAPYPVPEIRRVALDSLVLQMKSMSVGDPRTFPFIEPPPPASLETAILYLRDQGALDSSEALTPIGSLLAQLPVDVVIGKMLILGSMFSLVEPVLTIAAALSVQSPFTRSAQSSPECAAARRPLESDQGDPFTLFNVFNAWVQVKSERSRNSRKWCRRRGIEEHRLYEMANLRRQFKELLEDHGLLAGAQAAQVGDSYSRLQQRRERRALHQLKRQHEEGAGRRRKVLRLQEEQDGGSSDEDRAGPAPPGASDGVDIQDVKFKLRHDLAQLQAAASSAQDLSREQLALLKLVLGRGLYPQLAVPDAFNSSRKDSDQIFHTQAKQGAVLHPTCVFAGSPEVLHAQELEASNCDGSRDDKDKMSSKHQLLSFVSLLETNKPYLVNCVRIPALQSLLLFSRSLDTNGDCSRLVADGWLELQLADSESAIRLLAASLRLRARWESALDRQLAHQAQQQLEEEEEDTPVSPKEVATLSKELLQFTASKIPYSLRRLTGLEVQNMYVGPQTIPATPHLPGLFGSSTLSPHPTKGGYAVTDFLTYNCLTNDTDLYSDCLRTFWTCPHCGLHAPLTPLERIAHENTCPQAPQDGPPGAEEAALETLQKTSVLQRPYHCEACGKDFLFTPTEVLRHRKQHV

These targets were tested with c1cn2cc(-c3ccc4cn[nH]c4c3)nc(Nc3ccc(N4CCOCC4)cc3)c2n1 [entospletinib] (assay: log2 fold change, soluble protein after heating vs DMSO (PISA); higher = thermal stabilisation; K562 cells, 10 uM, 30 min; active = over 0.2 and 3.5 SD of the protein, either way, in both replicates (recomputed)).
Outline: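 Soluble protein was defined as the supernatant after 21,000xg for 90 min. It came from K562 cells at 2×10^6 cells/mL given 10 μM compound for 30 min, heated in aliquots for 3 min across 48°C-58°C, pooled, and extracted in PBS with 0.5% NP-40 at 4°C, and was quantified by TMTpro 16plex LC-MS/MS with equalised channel sums. Thermal stability against control samples, from duplicates, is reported as log2 fold change.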

log2 fold change, inactive:
DGAT1 (UniProt O75907) -0.048
DMD (UniProt P11532) -0.008
DLST (UniProt P36957) 0.059
DDT (UniProt P30046) -0.035
DHX34 (UniProt Q14147) 0.049
